Assay results published in PMC12431657, “Discovery and mechanistic insights of dibenzoylmethane as a broad spectrum inhibitor of coronavirus” (PLOS Pathogens, 2025).
Counter-ions that a name gives are not always drawn. Like-named read-outs stand apart in the source and are kept apart here. In all, about 3,300 compounds went through this assay and about 60 (2%) showed an effect of 50% or more. This is one part of the list.

Test system: HCoV-OC43
Set-up: species or system RD; HTS, protection from HCoV-OC43 induced cell death, luminescent cell viability (CellCounting-Lite 2.0), inhibition rate
Conditions: 24 h post infection, 1 h compound pre-incubation, 10 µM, inhibitor

SMILES	OC43 Inhibition rate	OC43 Inhibition rate (OC43 Inhibition rate, 24 h)
O=C1C[C@@H](c2ccc(O)cc2)Oc2cc(O[C@@H]3O[C@H](CO)[C@@H](O)[C@H](O)[C@H]3O)cc(O)c21 [Prunin]	0.7%	
Nc1ccncc1O [3-Hydroxy-4-aminopyridine]	0.3%	
C=CCSSCC=C [Diallyl disulfide]	-0.2%	
CC(=O)c1cccc(O)c1 [3-Hydroxyacetophenone]	-0.1%	
Cc1cc2nc3c(=O)[nH]c(=O)nc-3n(C[C@H](O)[C@H](O)[C@H](O)CO)c2cc1C [Riboflavin]	0%	
C[C@H](O)C(=O)O [L-Lactic acid]	0%	
C[C@H](CCC(=O)O)[C@H]1CC[C@H]2[C@@H]3CC[C@@H]4C[C@H](O)CC[C@]4(C)[C@H]3C[C@H](O)[C@]12C [Deoxycholic acid]		-0.7%
CCCCCCCCCCCCCC1=C(O)C(=O)C=C(O)C1=O [Rapanone]	5.4%	
NC1(C(=O)O)CC1 [1-Aminocyclopropane-1-carboxylic acid]	2.9%	
COc1ccc(-c2cc(=O)c3c(O)c(OC)c(OC)c(OC)c3o2)cc1 [Gardenin B]	0.1%	
Oc1cc(O)c2c(c1)O[C@]1(c3ccc(O)c(O)c3)Oc3cc(O)c4c(c3[C@H]2C1O)OC(c1ccc(O)c(O)c1)C(O)C4 (some centres unmarked) [Procyanidin A1]	13.4%	
CC(C)(CO)[C@@H](O)C(=O)NCCC(=O)O [D-Pantothenic acid (hemicalcium salt)]		0.1%
C[C@H]1[C@H](C)CC[C@]2(C(=O)O)CC[C@]3(C)C(=CC[C@@H]4[C@@]5(C)CC[C@H](O)C(C)(C)[C@@H]5CC[C@]43C)[C@H]12 [Ursolic acid]	-1.2%	
O=C(O)[C@@H]1C[C@@H](O)CN1 [L-Hydroxyproline,BioReagent, suitable for cell culture]	1.3%	
C[Se]C[C@H](N)C(=O)O [Se-Methylselenocysteine]	-3.8%	
CN[C@H](CC(C)C)C(=O)N[C@H]1C(=O)N[C@@H](CC(N)=O)C(=O)N[C@H]2C(=O)N[C@H]3C(=O)N[C@H](C(=O)N[C@H](C(=O)O)c4cc(O)cc(O)c4-c4cc3ccc4O)[C@H](O)c3ccc(c(Cl)c3)Oc3cc2cc(c3O[C@@H]2O[C@H](CO)[C@@H](O)[C@H](O)[C@H]2O[C@H]2C[C@](C)(N)[C@H](O)[C@H](C)O2)Oc2ccc(cc2Cl)[C@H]1O [Vancomycin (hydrochloride)]		-4%
C[C@H](CCC(=O)O)[C@H]1CC[C@H]2[C@@H]3[C@H](O)C[C@@H]4CC(=O)CC[C@]4(C)[C@H]3C[C@H](O)[C@]12C [3-Oxocholic acid]	0.1%	
COc1cc(O)cc(/C=C/c2ccc(O)cc2)c1 [Pinostilbene]	-0.3%	
C[S@@+]([O-])CCCCN=C=S [(R)-sulforaphane]	71.2%	
Nc1nc(O)c2[nH]nnc2n1 [8-Azaguanine]	54.4%	

SMILES	OC43 Inhibition rate	OC43 Inhibition rate (OC43 Inhibition rate, 24 h)
O=C1CC(C(=O)O)c2c1oc(=O)c1cc(O)c(O)c(O)c21 (centres unmarked) [Brevifolincarboxylic acid]	-0.7%	
NCCCCCC(=O)O [6-Aminocaproic acid]	0.9%	
CCCCCCCCCCCCCCCCCCCCCC(=O)O [Docosanoic acid]	-0.1%	
C[C@H](O)[C@@H](O)[C@@H](O)[C@H](O)C=O [(-)-Fucose]	0.3%	
COc1cc([C@H]2Oc3ccc([C@H]4Oc5cc(O)cc(O)c5C(=O)[C@@H]4O)cc3O[C@@H]2CO)ccc1O [Isosilybin A]	16.2%	
O=C(/C=C/c1ccc(O)cc1)NCCc1c[nH]c2ccc(O)cc12 [N-(p-Coumaroyl) Serotonin]	10.1%	
O[C@@H]1[C@@H](O)[C@H](OC/C=C/c2ccccc2)O[C@H](CO[C@@H]2OC[C@H](O)[C@H](O)[C@H]2O)[C@H]1O [Rosavin]	-1.2%	
CCCCCCCCCCC(=O)OC [Methyl undecanoate]	-0.4%	
CC1=CCCC(C)(C)[C@H]1/C=C/C(C)=C/C=C/C(C)=C/C=C/C=C(C)/C=C/C=C(C)/C=C/C1=C(C)CCCC1(C)C [α-Carotene]	19.1%	
NC(=O)C[C@H](N)C(=O)O [L-Asparagine]	-3%	
C[C@@H]1O[C@@H](O[C@H]2[C@H](O)[C@@H](O)[C@H](OC[C@H]3O[C@@H](OC(=O)[C@]45CCC(C)(C)C[C@H]4C4=CC[C@@H]6[C@@]7(C)CC[C@H](O[C@@H]8OC[C@H](O)[C@H](O)[C@H]8O)[C@@](C)(CO)[C@@H]7CC[C@@]6(C)[C@]4(C)CC5)[C@H](O)[C@@H](O)[C@@H]3O)O[C@@H]2CO)[C@H](O)[C@H](O)[C@H]1O [Hederacoside D]		0.3%
CC(C)=CCC[C@](C)(O[C@@H]1O[C@H](CO[C@@H]2OC[C@H](O)[C@H](O)[C@H]2O)[C@@H](O)[C@H](O)[C@H]1O)[C@H]1CC[C@]2(C)[C@@H]1[C@H](O)C[C@@H]1[C@@]3(C)CC[C@H](O[C@@H]4O[C@H](CO)[C@@H](O)[C@H](O)[C@H]4O[C@@H]4O[C@H](CO)[C@@H](O)[C@H](O)[C@H]4O)C(C)(C)[C@@H]3CC[C@]12C [Ginsenoside Rb2]	-0.7%	
C/C=C(\C)C(=O)O[C@@H]1c2cc(OC)c(OC)c(OC)c2-c2c(cc3c(c2OC)OCO3)C[C@H](C)[C@@]1(C)O [Tigloylgomisin P]	1.1%	
COc1cc2oc(=O)ccc2c(OC)c1C[C@@H](O)C(C)(C)O [Toddalolactone]	-0.5%	
Cc1ncc(CO)c(C=O)c1O [Pyridoxal hydrochloride]	0%	
COc1ccc(-c2cc(=O)c3c(OC)c(OC)c(OC)cc3o2)cc1 [Scutellarein tetramethyl ether]	22.2%	
Nc1ccn([C@H]2C[C@H](O)[C@@H](CO)O2)c(=O)n1 [2'-Deoxycytidine]	4.5%	
O=C(O)CC(=O)C(=O)O [Oxaloacetic acid]	6%	
O=C(O)/C=C/c1cccc(O)c1 [(E)-m-Coumaric acid]	-0.6%	
CC(C)C[C@H]1C(=O)O[C@H](Cc2ccccc2)C(=O)N(C)[C@@H](CC(C)C)C(=O)O[C@H](C)C(=O)N(C)[C@@H](CC(C)C)C(=O)O[C@H](Cc2ccccc2)C(=O)N(C)[C@@H](CC(C)C)C(=O)O[C@H](C)C(=O)N1C [PF 1022A]	-3.6%	

Reprinted at random: 4 compounds from above, in no set order.
SMILES	OC43 Inhibition rate	OC43 Inhibition rate (OC43 Inhibition rate, 24 h)
Cc1ncc(CO)c(C=O)c1O [Pyridoxal hydrochloride]	0%	
Nc1ccn([C@H]2C[C@H](O)[C@@H](CO)O2)c(=O)n1 [2'-Deoxycytidine]	4.5%	
O=C(O)CC(=O)C(=O)O [Oxaloacetic acid]	6%	
CC(C)=CCC[C@](C)(O[C@@H]1O[C@H](CO[C@@H]2OC[C@H](O)[C@H](O)[C@H]2O)[C@@H](O)[C@H](O)[C@H]1O)[C@H]1CC[C@]2(C)[C@@H]1[C@H](O)C[C@@H]1[C@@]3(C)CC[C@H](O[C@@H]4O[C@H](CO)[C@@H](O)[C@H](O)[C@H]4O[C@@H]4O[C@H](CO)[C@@H](O)[C@H](O)[C@H]4O)C(C)(C)[C@@H]3CC[C@]12C [Ginsenoside Rb2]	-0.7%	

(listing goes on)

SMILES	OC43 Inhibition rate	OC43 Inhibition rate (OC43 Inhibition rate, 24 h)
COC(=O)C1=C(O)c2ccccc2C(=O)[C@]1(CC=C(C)C)C1=CC(=O)c2ccccc2C1=O [Rubipodanone A]	58.8%	
C=C1[C@H](O)C[C@H]2[C@@H](/C=C(/C)C(=O)[C@@]3(O)C[C@H](C)[C@H](O)[C@@H]3[C@H]1O)C2(C)C [7beta-Hydroxylathyrol]	-0.4%	
COc1cc2c(cc1OC)OC(C)(C)C=C2 [Precocene II]	1.2%	
CC(C)CCC[C@@H](C)[C@H]1CC[C@H]2[C@@H]3CCC4=CC(=O)CC[C@]4(C)[C@H]3CC[C@]12C [Cholestenone]	-0.3%	
CC(C)=CCc1c(O)ccc(-c2coc3cc(O)cc(O)c3c2=O)c1O [Licoisoflavone A]	59.7%	
C/C=C/C[C@@H](C)[C@@H](O)[C@H]1C(=O)N[C@@H](C(C)C)C(=O)N(C)CC(=O)N(C)[C@@H](CC(C)C)C(=O)N[C@@H](C(C)C)C(=O)N(C)[C@@H](CC(C)C)C(=O)N[C@@H](C)C(=O)N[C@H](C)C(=O)N(C)[C@@H](CC(C)C)C(=O)N(C)[C@@H](CC(C)C)C(=O)N(C)[C@@H](C(C)C)C(=O)N1C [Cyclosporin D]	68%	
Oc1ccc(CCc2cc(O)cc(O)c2)cc1 [Dihydroresveratrol]	-6.5%	
CCCCCCCC(=O)OCC(COC(=O)CCCCCCC)OC(=O)CCCCCCC [Tricaprilin]	0%	
CO[C@H]1C[C@H](O[C@H]2CC[C@]3(C)[C@H]4CC[C@]5(C)[C@@H](C6=CC(=O)OC6)CC[C@]5(O)[C@@H]4CC[C@]3(O)C2)O[C@H](C)[C@H]1O [Periplocymarin]	3.9%	
C[N+](C)(C)CCCC(=O)O [(3-Carboxypropyl)trimethylammonium chloride]	-0.8%	
COC(=O)[C@]12CCC(C)(C)C[C@H]1C1=CC[C@@H]3[C@@]4(C)CCC(=O)C(C)(C)[C@@H]4CC[C@@]3(C)[C@]1(C)CC2 [Methyl oleanonate]	-0.1%	
C=C1C(=O)O[C@@H]2C[C@@]3(C)CCCC(=C)[C@@H]3C[C@H]12 [Isoalantolactone]	0.9%	
C[C@@H]1O[C@@H](Oc2c(-c3ccc(O)cc3)oc3cc(O)cc(O)c3c2=O)[C@H](O)[C@H](O)[C@H]1O [Afzelin]	8.7%	
C/C=C/C(=O)O [NSC 8751]	-2.6%	
NC(Cn1ccc(=O)c(O)c1)C(=O)O (centres unmarked) [Mimosine]	-6.4%	
COc1ccc(/C=C/c2cc(O)cc(O[C@@H]3O[C@H](CO)[C@@H](O)[C@H](O)[C@H]3O)c2)cc1 [Desoxyrhaponticin]	0.6%	
CCCCCCCCCCCCCC(=O)OC[C@@H](O)COP(=O)([O-])OCC[N+](C)(C)C [LysoPC(14:0/0:0)]	-0.2%	
CC(CC(=O)O)C(=O)O (centres unmarked) [2-Methylsuccinic acid]	0.4%	
CC(C)=CCC/C(C)=C/Cc1cc(-c2coc3cc(O)ccc3c2=O)ccc1O [Corylifol A]	-2.2%	
